The supplement of paper PMC10398353
“And” between values parts separate entries of the source, which are not always exact repeats. Equal values may be shown once. Where a name gives a salt, the structure may show the parent alone. ± gives the standard deviation of the averaged measurements. The list shows a part of the results. This is a noisy data set.

The molecules below were run on Salmonella enterica serovar Typhimurium ST313 D23580 (assay: normalized bacterial growth (OD600 20 h minus 0 h, interquartile-mean normalized) (fraction of plate interquartile mean); higher = more bacterial growth (less inhibition)). Conditions: LPM (pH 5.8, low phosphate, low Mg2+), concentration: 10 µM, temperature: 37 °C.

Structure (SMILES) | normalized bacterial growth
COc1cc2c3cc1Oc1cc(ccc1O)C[C@@H]1c4c(cc(OC)c(O)c4Oc4ccc(cc4)C[C@@H]3N(C)CC2)CC[N+]1(C)C | 0.976 and 0.567
Cc1ncc(CO)c(CO)c1O [Pyridoxine hydrochloride] | 1.12
Cc1ncc(CO)c(CO)c1O | 0.703
CN1CCc2cc(Cl)c(O)cc2[C@@H](c2ccccc2)C1 | 1.21
Nc1ccc(N2C(=O)c3ccccc3C2=O)c(Cl)c1 [N-(4-Amino-2-chlorophenyl)phthalimide] | 1.07
CCc1c(C)[nH]c2c1C(=O)C(CN1CCOCC1)CC2 (stereo unspecified) [Molindone hydrochloride] | 0.727
NC(=O)CNCCC(c1ccccc1)c1ccccc1 ["N-(3,3-Diphenylpropyl)glycinamide"] | 0.882
COc1cc(C(=O)NCCCCCC(=O)O)cc(OC)c1OC | 1.03
CC1=C(C(=O)O)N2C(=O)[C@@H](NC(=O)[C@H](N)C3=CCC=CC3)[C@H]2SC1 [Cephradine] | 1.2
CC1=C(C(=O)O)N2C(=O)[C@@H](NC(=O)[C@H](N)C3=CCC=CC3)[C@H]2SC1 | 0.971 ± 0.054
N[C@@H](CCC(=O)N[C@@H](CS)C(=O)NCC(=O)O)C(=O)O | 1.03
CC1=C(/C=C/C(C)=C/C=C/C(C)=C/C(=O)O)C(C)(C)CCC1 | 0.844
CC(=O)O[C@@H]1CC2C(C)(C)[C@H](O)C=C[C@]2(C)C2CC[C@@]3(C)[C@H](c4ccoc4)OC(=O)C4OC43[C@@]21C (stereo partly specified) | 0.927
CC(O)C(O)[C@H]1CNc2nc(N)[nH]c(=O)c2N1 (stereo partly drawn) ["(6R)-5,6,7,8-Tetrahydro-L-biopterin hydrochloride"] | 1
CC(C)=CC[C@@H](O)C1=CC(=O)c2c(O)ccc(O)c2C1=O | 1.11
NC(=O)C1=CN(C2OC(COP(=O)(O)OP(=O)(O)OC[C@H]3O[C@@H](n4cnc5c(N)ncnc54)C(OP(=O)(O)O)[C@H]3O)C(O)C2O)C=CC1 (stereo partly specified) [NADPH tetrasodium] | 1.21
CC(=O)Oc1ccccc1C(=O)O [Acetylsalicylic acid] | 1.35
O=c1cc(-c2ccccc2)oc2cc(O)ccc12 | 1.17
O=C(O)[C@H]1NCCC[C@H]1C(=O)O ["()-cis-Piperidine-2,3-dicarboxylic acid"] | 1.27
CC1=C(/C=C/C(C)=C/C=C/C(C)=C/C=C/C=C(C)/C=C/C=C(C)/C=C/C2=C(C)C(=O)[C@@H](O)CC2(C)C)C(C)(C)C[C@H](O)C1=O [Astaxanthin] | 1.18
COc1ccc2ccc(=O)oc2c1CC=C(C)C | 0.941
N=C(N)NS(=O)(=O)c1ccc(N)cc1 | 0.515

Structure (SMILES) | normalized bacterial growth
COc1cc2nc(N(C)CCCNC(=O)C3CCCO3)nc(N)c2cc1OC (stereo unspecified) [Alfuzosin hydrochloride] | 1.02
Clc1ccc(Cn2c(CN3CCCC3)nc3ccccc32)cc1 [Clemizole hydrochloride] | 0.942
O=C(O)/C=C/c1ccc(O)c(O)c1 [Caffeic acid] | 1.3
O=C(O)/C=C/c1ccc(O)c(O)c1 | 0.924
OCC1OC(n2cnc3c(NC4CCCCC4)ncnc32)C(O)C1O (stereo unspecified) [N6-Cyclohexyladenosine] | 1.13
N[C@@H](Cc1c[nH]c2ccc(O)cc12)C(=O)O [5-Hydroxy-L-tryptophan] | 1.11
CCCCCCCCCCCCCCCC(=O)OC[C@@H](NC(=O)C(Cl)Cl)[C@H](O)c1ccc([N+](=O)[O-])cc1 | 1.16
O=C(O)COCCN1CCN(C(c2ccccc2)c2ccc(Cl)cc2)CC1 (stereo unspecified) [Cetirizine dihydrochloride] | 1.26
C#C[C@]1(OC(C)=O)CC[C@H]2[C@@H]3CCC4=CC(=NO)CC[C@@H]4[C@H]3CC[C@@]21CC (mixture of isomers) | 1.12
COc1ccc2cc([C@H](C)CO)ccc2c1 | 0.887
CC(=O)O[C@]1(C(C)=O)CC[C@H]2[C@@H]3C=C(Cl)C4=CC(=O)[C@@H]5C[C@@H]5[C@]4(C)[C@H]3CC[C@@]21C [Cyproterone acetate] | 0.888
CC(=O)O[C@]1(C(C)=O)CC[C@H]2[C@@H]3C=C(Cl)C4=CC(=O)[C@@H]5C[C@@H]5[C@]4(C)[C@H]3CC[C@@]21C | 0.82
O=C(O)C1CCCN(CCC=C(c2ccccc2)c2ccccc2)C1 (stereo unspecified) | 1
Clc1ccc(CO/N=C(\Cn2ccnc2)c2ccc(Cl)cc2Cl)c(Cl)c1 | 0.859
Nc1ncnc2c1ncn2[C@@H]1O[C@H](CO)[C@@H](O)[C@H]1O [Adenosine] | 1.1
Nc1ncnc2c1ncn2[C@@H]1O[C@H](CO)[C@@H](O)[C@H]1O | 1.11
Clc1ccc(CSC(Cn2ccnc2)c2ccc(Cl)cc2Cl)cc1 (stereo unspecified) | 1.18
C[n+]1cc2c3c(ccc2c2ccc4cc5c(cc4c21)OCO5)OCO3 [Sanguinarine chloride] | 0.761
C[n+]1cc2c3c(ccc2c2ccc4cc5c(cc4c21)OCO5)OCO3 | 0.9 and 0.505
COc1ccc2c(c1)OCC(Cc1ccc(O)c(OC)c1)C2=O (stereo unspecified) | 1.3
COc1ccccc1N1CCN(CCN(C(=O)C2CCCCC2)c2ccccn2)CC1 | 0.981
CN(C)CCN(Cc1ccccc1)c1ccccn1 | 0.902

Structure (SMILES) | normalized bacterial growth
C=CC1=C(C)c2cc3[nH]c(cc4nc(cc5[nH]c(cc1n2)c(C)c5CCC(=O)O)C(CCC(=O)O)=C4C)c(C)c3C=C [Protoporphyrin IX disodium] | 0.991
O=C(O)CCCCCCCCCCCC[C@@H]1C=CCC1 | 1.04
COc1cc(OC)c2c(=O)c(O)c(-c3ccc(OC)c(OC)c3)oc2c1 | 0.939
CNCc1ccccc1 | 1.05
N[C@@H](Cc1cc(I)c(Oc2cc(I)c(O)c(I)c2)c(I)c1)C(=O)O | 0.787
Cc1cc(=O)oc2cc(O)c(O)cc12 | 0.908
COc1cc(O)c(C(C)=O)c(O)c1 | 1.19
O=C1Nc2ccccc2/C1=C1/Nc2ccccc2C1=O | 1.16
N=C(N)NC(=O)Cc1c(Cl)cccc1Cl [Guanfacine hydrochloride] | 0.887
CN1C[C@H](O)[C@@H](O)[C@H](O)[C@H]1CO [N-Methyl-1-deoxynojirimycin] | 1.09
OC(CN1CCC(Cc2ccc(F)cc2)CC1)c1ccc(Cl)cc1 (stereo unspecified) [Eliprodil] | 0.85
COc1ccc([C@@H]2CC(=O)c3c(O)cc(O[C@@H]4O[C@H](CO[C@@H]5O[C@@H](C)[C@H](O)[C@@H](O)[C@H]5O)[C@@H](O)[C@H](O)[C@H]4O)cc3O2)cc1 | 1.25
CN(C)CC/C=C1/c2ccccc2Sc2ccc(Cl)cc21 | 0.926
CN(C)CC/C=C1/c2ccccc2Sc2ccc(Cl)cc21 [Chlorprothixene hydrochloride] | 0.472
CC(=O)O[C@H]1C[C@@H](OC(C)=O)C(C)(C)[C@@H]2C[C@@H](OC(C)=O)[C@]3(C)[C@H](CC[C@@]4(C)[C@H](c5ccoc5)OC(=O)[C@H]5O[C@@]534)[C@@]12C | 0.644
CN(C)CCOC(c1ccccc1)c1ccccc1 [Diphenhydramine hydrochloride] | 0.81
C=CCCCCCCCCCCCc1ccco1 | 1.14
COc1ccc(-c2coc3c(O)c(OC)ccc3c2=O)cc1 | 0.939
C[C@]12CC[C@@H]3c4ccc(O)cc4CC[C@H]3[C@@H]1CC[C@@H]2O | 1.08
C[C@]12CC[C@@H]3c4ccc(O)cc4CC[C@H]3[C@@H]1CC[C@@H]2O [beta-Estradiol] | 0.913
CCCN(CCC)S(=O)(=O)c1ccc(C(=O)O)cc1 | 1.3
Cn1cc(NC(=O)c2cc(NC(=O)c3cc(NC=O)cn3C)cn2C)cc1C(=O)NCCC(=N)N | 0.98

Laid out differently: results already given.

| Structure (SMILES) | normalized bacterial growth |
| --- | --- |
| N=C(N)NS(=O)(=O)c1ccc(N)cc1 | 0.515 |
| OCC1OC(n2cnc3c(NC4CCCCC4)ncnc32)C(O)C1O (stereo unspecified) [N6-Cyclohexyladenosine] | 1.13 |
| O=C(O)C1CCCN(CCC=C(c2ccccc2)c2ccccc2)C1 (stereo unspecified) | 1 |
| C=CC1=C(C)c2cc3[nH]c(cc4nc(cc5[nH]c(cc1n2)c(C)c5CCC(=O)O)C(CCC(=O)O)=C4C)c(C)c3C=C [Protoporphyrin IX disodium] | 0.991 |

(further entries)

Structure (SMILES) | normalized bacterial growth
CCN(CC)C(=O)c1cccc(C)c1 | 0.734
Cc1onc(-c2ccccc2)c1-c1ccc(S(N)(=O)=O)cc1 | 1.08
COc1ccc(CCN(C)CCCC(C#N)(c2ccc(OC)c(OC)c2)C(C)C)cc1OC (stereo unspecified) [()-Verapamil hydrochloride] | 0.755
CCCc1cc(=O)[nH]c(=S)[nH]1 | 0.738
CC1=C(CCC(=O)O)c2cc3[nH]c(cc4nc(cc5[nH]c(cc1n2)c(C)c5C(C)O)C(C)=C4C(C)O)c(C)c3CCC(=O)O (stereo unspecified) | 1.05
C[N+]1(CCCCC[N+]2(C)CCCC2)CCCC1 [Pentolinium di[L(+)-tartrate]] | 0.963
O=C(Nc1ccccc1)c1cc([N+](=O)[O-])ccc1Cl | 1.17
CO/N=C(\C(=O)N[C@@H]1C(=O)N2C(C(=O)OCOC(=O)C(C)(C)C)=C(/C=C\c3scnc3C)CS[C@H]12)c1csc(N)n1 | 0.735
CN(N=O)C(=O)N[C@H]1C(O)O[C@H](CO)[C@@H](O)[C@@H]1O (mixture of isomers) | 1.39
CC(=O)C1=C(O)C=C2Oc3c(C(C)=O)c(O)c(C)c(O)c3[C@@]2(C)C1=O | 0.938
S=C(S)OC1CC2CC1C1CCCC21 [D-609 potassium] | 0.973
Oc1ncnc2[nH]ncc12 | 1.04
Oc1ncnc2[nH]ncc12 [Allopurinol] | 1.11
O=[N+]([O-])c1ccc(-c2nc(-c3ccc(F)cc3)c(-c3ccncc3)[nH]2)cc1 | 0.745
CC1(C)C(=O)C=C[C@]2(C)[C@H]3CC[C@@]4(C)[C@H](c5ccoc5)OC(=O)[C@H]5O[C@]54[C@]3(C)C(=O)C[C@@H]12 | 1.14
CCCCCCC[N+](CC)(CC)CCCCc1ccc(Cl)cc1 [Clofilium tosylate] | 0.876
CNCCCC1c2ccccc2C=Cc2ccccc21 [Protriptyline hydrochloride] | 0.846
CCOC(=O)C1=C[C@@H](OC(CC)CC)[C@H](NC(C)=O)[C@@H](N)C1 | 1.12
C[C@]12CCC(=O)C=C1CC[C@@H]1[C@@H]2[C@@H](O)C[C@@]2(C)[C@H]1CC[C@]2(O)C(=O)CO [Hydrocortisone] | 0.492
C[C@]12CCC(=O)C=C1CC[C@@H]1[C@@H]2[C@@H](O)C[C@@]2(C)[C@H]1CC[C@]2(O)C(=O)CO | 0.862
